# Library screen at single concentrations

Chains of the proteins cited; added tags and fusions are not shown. Residues count along the entry.
UniProt P9WPC5, whole entry: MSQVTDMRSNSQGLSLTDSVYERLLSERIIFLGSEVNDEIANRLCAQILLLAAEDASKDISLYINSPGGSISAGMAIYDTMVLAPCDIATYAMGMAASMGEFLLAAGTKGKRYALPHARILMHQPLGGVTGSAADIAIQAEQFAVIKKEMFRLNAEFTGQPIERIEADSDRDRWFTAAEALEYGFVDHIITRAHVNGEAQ
UniProt P9WPC3, whole entry partner: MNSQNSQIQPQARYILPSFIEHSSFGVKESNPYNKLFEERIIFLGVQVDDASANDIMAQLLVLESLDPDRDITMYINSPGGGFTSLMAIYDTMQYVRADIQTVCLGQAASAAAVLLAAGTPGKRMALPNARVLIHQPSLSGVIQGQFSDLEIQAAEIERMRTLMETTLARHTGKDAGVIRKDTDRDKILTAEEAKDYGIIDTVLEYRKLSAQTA
UniProt Q8IDJ8, 1-583: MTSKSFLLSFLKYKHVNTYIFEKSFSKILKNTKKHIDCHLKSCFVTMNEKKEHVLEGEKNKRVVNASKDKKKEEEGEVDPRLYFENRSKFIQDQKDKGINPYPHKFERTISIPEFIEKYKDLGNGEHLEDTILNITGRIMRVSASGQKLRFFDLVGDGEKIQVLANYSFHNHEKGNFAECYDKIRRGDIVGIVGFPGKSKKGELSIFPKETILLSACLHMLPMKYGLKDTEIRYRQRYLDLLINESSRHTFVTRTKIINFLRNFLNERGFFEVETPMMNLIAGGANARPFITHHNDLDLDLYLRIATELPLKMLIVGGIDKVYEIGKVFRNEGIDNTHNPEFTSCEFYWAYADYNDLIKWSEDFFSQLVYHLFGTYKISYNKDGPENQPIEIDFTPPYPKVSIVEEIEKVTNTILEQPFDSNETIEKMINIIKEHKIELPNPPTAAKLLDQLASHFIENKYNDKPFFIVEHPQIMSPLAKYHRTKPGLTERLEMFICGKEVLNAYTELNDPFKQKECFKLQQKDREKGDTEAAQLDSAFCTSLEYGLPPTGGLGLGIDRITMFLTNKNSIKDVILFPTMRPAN

Data taken from ChEMBL document CHEMBL3988442, “University of Dundee, Small-Polar-MMV Screening Library” (2021).

Leishmania in macrophages: 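Cell assay of Leishmania donovani living inside macrophages; the read-out is not stated. Tested at 30 µM. The record gives no direction; compounds that gave an IC50 in retests scored well above the rest, so higher reads as stronger inhibition. Of about 69,000 compounds tested this way, about 1,000 (1.5%) reached 50% or more in at least one test.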
ClpP1P2: 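ClpP1P2, Mycobacterium tuberculosis (UniProt P9WPC5 and UniProt P9WPC3). Protease assay of ClpP1P2, read by the AMC dye that it sets free. Concentration: 50 µM. Higher reads as stronger inhibition, judged from the few compounds that gave an IC50. Most other retested compounds had strongly negative values. Of about 69,000 compounds tested this way, about 10 (0.015%) reached 50% or more in at least one test.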
Toxoplasma: 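Assay of Toxoplasma gondii numbers, read through their beta-galactosidase reporter with a colour substrate. Tested at 10 µM. The record gives no direction; the compounds picked for IC50 retests had high values, so higher reads as fewer parasites. About 67,000 compounds were tested under these conditions; 0.38% (about 260) showed 50% or more at least once.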
PfKRS1: 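Lysine-tRNA ligase, Plasmodium falciparum 3D7 (UniProt Q8IDJ8). Enzyme assay of the cytosolic lysyl-tRNA synthetase in 384-well plates, read by luminescence. Compounds at 30 µM. Direction is inferred from only a few compounds that gave an IC50; most scored high, so higher reads as stronger inhibition. Size under these conditions: about 69,000 compounds, about 49 of them at 50% or above in at least one test.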

The filed quantity is “Percent Effect” (%). The controls that fix the scale are not given in the record; negative values are as filed. Compounds were drawn at random from those tested, without regard to their results. A dash means the value is not listed here; it may have been measured.

| # | structure | Leishmania in macrophages | ClpP1P2 | Toxoplasma | PfKRS1 |
|---|---|---|---|---|---|
| 1 | `[H][C@@]12CS(=O)(=O)C[C@]1([H])N(Cc1cc(Cl)cc(Cl)c1)CCN2CC1CC1` | 31.94% | - | 39.87% | - |
| 2 | `O=C(NCCc1coc(-c2ccccc2)n1)NC1CC1` | -0.3874% | -28.3% | 5.356% | -1.201% |
| 3 | `CCCN(Cc1cnn(C)c1)CC1CCCN(S(C)(=O)=O)C1` (configuration not stated) | -16.09% | 15.79% | 1.016% | 3.515% |
| 4 | `O=C(c1cscn1)N1CCC(O)(Cn2ccc3ccncc32)CC1` | 13.47% | -2.995% | 15.04% | 0.6161% |
| 5 | `c1cnc(-c2nc(CN3CCOC(Cn4cncn4)C3)cs2)nc1` (configuration not stated) | -14.09% | 17.42% | -1.091% | -1.71% |
| 6 | `Cc1cc(C(=O)NCCC2CCN(C)CC2)ccc1N(C)S(C)(=O)=O` | 26.44% | -7.695% | -4.062% | -1.983% |
| 7 | `CC(C)[C@H](N)C(=O)N1CCSc2ccccc2C1.Cl` | 3.075% | - | 4.665% | - |
| 8 | `Cc1cc(CN2C[C@@H]3CCCO[C@@H]3[C@H](Nc3ccccn3)C2)no1` | - | -4.49% | - | 1.367% |
| 9 | `CN1CCc2c(c(COc3cncnc3)nn2CC2CC2)C1` | - | 9.403% | - | -3.712% |
| 10 | `CCc1nc(CC(=O)NCC2(C(N)=O)CCOCC2)cs1` | 13.72% | 1.005% | 2.294% | 1.931% |
| 11 | `COc1cccc(C(=O)N2CCCCC2c2nccs2)c1OC` (configuration not stated) | -9.207% | -24.28% | 6.781% | -0.4587% |
| 12 | `CCC(C)(O)CNC(=O)Nc1ccc(C)cc1Br` (configuration not stated) | 15.03% | -6.432% | -0.7704% | 4.387% |
| 13 | `O=C(c1cncc(NCC2COc3ccccc3C2)n1)N1CCOCC1` (configuration not stated) | 7.375% | -52.9% | 10.85% | -4.05% |
| 14 | `c1ccc(-n2ccc(CN3CCCC(Cn4cncn4)C3)n2)cc1` (configuration not stated) | 25.26% | -11.75% | 7.38% | 0.9351% |
| 15 | `CN(C)c1nccc(C2CN(S(C)(=O)=O)C2)n1` | -3.51% | -1.268% | 9.044% | 0.1752% |
| 16 | `CSc1ccccc1CN1C[C@@H]2CC[C@H](C1)N(CC1CC1)C2=O` | - | 9.917% | - | -1.557% |
| 17 | `CC1CN(C)CCN1C(=O)c1cnn(-c2ccc(Cl)cc2)c1` (configuration not stated) | -4.866% | -8.747% | -7.478% | 4.424% |
| 18 | `CS(=O)(=O)NCc1cnc2n1CCN(Cc1cccs1)CC2` | - | -9.756% | - | 1.381% |
| 19 | `CC(C)c1ncc(CN2CCOC(C(=O)Nc3ccccc3)C2)cn1` (configuration not stated) | -1.659% | -8.918% | 0.4643% | -0.8747% |
| 20 | `CCS(=O)(=O)N1CCN(C(=O)c2ccc(Cn3cc(Br)cn3)cc2)CC1` | 33.08% | -5.496% | -1.116% | 4.475% |
| 21 | `O=C(CCc1nccs1)N1CCCC(N2CCNC2=O)C1` (configuration not stated) | 29.78% | 0.1679% | 6.24% | 1.495% |
| 22 | `O=C(NCc1cccnc1)N1CCSCC1CCO` (configuration not stated) | -1.948% | 13.82% | 4.482% | 3.027% |
| 23 | `CN1CCc2c(CNc3ncccn3)n[nH]c2C1` | - | 18.51% | - | -11.77% |
| 24 | `CC(C)c1nn(C)c(N(C)C)c1CNCc1cccnc1` | 0.7273% | 1.931% | -8.29% | 5.84% |
| 25 | `CCOc1ccc(C(F)(F)F)cc1NCc1cc(C)on1` | 0.3028% | -4.256% | -6.008% | 2.94% |
| 26 | `Cc1cnn(CC2CCCN2Cc2coc(-c3ccc(F)cc3)n2)c1` (configuration not stated) | -66.84% | -2.252% | 3.968% | 4.681% |
| 27 | `O=C(c1cccnc1)N1CCn2cc(CN3CCCC3)nc2C1` | - | 1.426% | - | 2.53% |
| 28 | `CNC(=O)NC(C)c1nc(-c2ccc(Br)cc2)no1` (configuration not stated) | -2.68% | -1.098% | 2.509% | -7.514% |
| 29 | `COCCCN(C)c1cc(C(F)(F)F)nc(-c2cccnc2)n1` | 1.301% | 8.162% | 1.977% | 7.457% |
| 30 | `O=C(O)c1ccccc1-c1c(-c2ccccc2)ncn1C[C@H]1CCCN1` | 31.03% | -7.044% | -0.06618% | 5.283% |
| 31 | `CCC(CO)N(Cc1ccsc1)Cc1ccc(-c2ccn[nH]2)s1` (configuration not stated) | 47.94% | -8.39% | -41.33% | -0.04474% |
| 32 | `CN(Cc1ccc(C#N)cc1)C(=O)c1ccnc(OC2CCC2)c1` | -3.45% | -14.64% | 4.172% | 2.118% |
| 33 | `CC(C)(C)c1nc(CN2CCCC2Cn2cccn2)no1` (configuration not stated) | -34.13% | 19.54% | -0.5294% | 0.6376% |
| 34 | `COc1c(NS(=O)(=O)c2cc(C)ccc2C)c(C)nn1C` | 23.93% | 4.894% | -6.755% | 3.116% |
| 35 | `[H][C@]12CN(Cc3cccc(C#N)c3)CC[C@@]1(O)CCN(S(=O)(=O)N(C)C)C2` | -49.26% | - | 0.5358% | - |

The last 3 entries again:

- CC(C)(C)c1nc(CN2CCCC2Cn2cccn2)no1 (configuration not stated) : Leishmania in macrophages: -34.13%; ClpP1P2: 19.54%; Toxoplasma: -0.5294%; PfKRS1: 0.6376%
- COc1c(NS(=O)(=O)c2cc(C)ccc2C)c(C)nn1C : Leishmania in macrophages: 23.93%; ClpP1P2: 4.894%; Toxoplasma: -6.755%; PfKRS1: 3.116%
- [H][C@]12CN(Cc3cccc(C#N)c3)CC[C@@]1(O)CCN(S(=O)(=O)N(C)C)C2 : Leishmania in macrophages: -49.26%; Toxoplasma: 0.5358%